These results are taken from PMC11801639.

Results are given in words; binding and its absence hold for the method and conditions named. Some entries that bind do so weakly or less than the wild type.

This experiment has as its target T1, human Eme1 (residues 178–570) (human) (UniProt Q96AY2).
T1 sequence: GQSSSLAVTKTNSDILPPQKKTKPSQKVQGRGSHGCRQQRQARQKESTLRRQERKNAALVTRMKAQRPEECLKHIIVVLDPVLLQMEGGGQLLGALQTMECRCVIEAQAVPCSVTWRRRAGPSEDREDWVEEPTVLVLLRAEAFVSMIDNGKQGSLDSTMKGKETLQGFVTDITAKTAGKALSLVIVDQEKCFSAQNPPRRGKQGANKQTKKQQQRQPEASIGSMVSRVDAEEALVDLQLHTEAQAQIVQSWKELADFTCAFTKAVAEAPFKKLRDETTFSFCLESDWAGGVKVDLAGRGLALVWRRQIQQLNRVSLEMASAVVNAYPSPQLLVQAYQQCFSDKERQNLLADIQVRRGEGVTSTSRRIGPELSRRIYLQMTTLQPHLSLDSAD
The experiment is described as follows: co-purification (Ni2+-NTA affinity chromatography); both chains co-expressed in E. coli Rosetta (DE3); His-tagged complex purified on Ni2+-NTA and verified by SDS-PAGE.

B1: human Mus81 (aa 246–551) (domain or fragment, UniProt Q96NY9 246-551)
chain: SAELASEAGVQQQPLELRPGEYRVLLCVDIGETRGGGHRPELLRELQRLHVTHTVRKLHVGDFVWVAQETNPRDPANPGELVLDHIVERKRLDDLCSSIIDGRFREQKFRLKRCGLERRVYLVEEHGSVHNLSLPESTLLQAVTNTQVIDGFFVKRTADIKESAAYLALLTRGLQRLYQGHTLRSRPWGTPGNPESGAMTSPNPLCSLLTFSDFNAGAIKNKAQSVREVFARQLMQVRGVSGEKAAALVDRYSTPASLLAAYDACATPKEQETLLSTIKCGRLQRNLGPALSRTLSQLYCSYGPLT
In the case of B1, the binding result is “binds”.
